Test results from US20080248467.

By UniProt entry, the sequences of proteins in these tests, tags left out. Where a name states a change or a piece, a line headed by the entry shows the natural chain unless it says otherwise.
UniProt P24610: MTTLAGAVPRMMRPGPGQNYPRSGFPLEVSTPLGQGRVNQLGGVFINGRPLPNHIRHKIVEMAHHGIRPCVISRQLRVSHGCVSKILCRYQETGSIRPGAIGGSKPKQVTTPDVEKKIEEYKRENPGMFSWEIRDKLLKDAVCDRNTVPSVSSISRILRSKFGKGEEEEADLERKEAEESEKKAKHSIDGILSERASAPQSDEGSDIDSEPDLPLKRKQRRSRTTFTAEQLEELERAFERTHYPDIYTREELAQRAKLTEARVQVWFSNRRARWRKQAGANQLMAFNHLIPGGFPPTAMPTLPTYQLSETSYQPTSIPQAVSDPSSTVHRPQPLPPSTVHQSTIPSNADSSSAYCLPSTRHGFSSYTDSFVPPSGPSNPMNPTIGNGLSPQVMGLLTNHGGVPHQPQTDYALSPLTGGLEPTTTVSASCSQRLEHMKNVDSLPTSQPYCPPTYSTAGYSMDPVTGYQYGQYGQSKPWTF
UniProt Q12778: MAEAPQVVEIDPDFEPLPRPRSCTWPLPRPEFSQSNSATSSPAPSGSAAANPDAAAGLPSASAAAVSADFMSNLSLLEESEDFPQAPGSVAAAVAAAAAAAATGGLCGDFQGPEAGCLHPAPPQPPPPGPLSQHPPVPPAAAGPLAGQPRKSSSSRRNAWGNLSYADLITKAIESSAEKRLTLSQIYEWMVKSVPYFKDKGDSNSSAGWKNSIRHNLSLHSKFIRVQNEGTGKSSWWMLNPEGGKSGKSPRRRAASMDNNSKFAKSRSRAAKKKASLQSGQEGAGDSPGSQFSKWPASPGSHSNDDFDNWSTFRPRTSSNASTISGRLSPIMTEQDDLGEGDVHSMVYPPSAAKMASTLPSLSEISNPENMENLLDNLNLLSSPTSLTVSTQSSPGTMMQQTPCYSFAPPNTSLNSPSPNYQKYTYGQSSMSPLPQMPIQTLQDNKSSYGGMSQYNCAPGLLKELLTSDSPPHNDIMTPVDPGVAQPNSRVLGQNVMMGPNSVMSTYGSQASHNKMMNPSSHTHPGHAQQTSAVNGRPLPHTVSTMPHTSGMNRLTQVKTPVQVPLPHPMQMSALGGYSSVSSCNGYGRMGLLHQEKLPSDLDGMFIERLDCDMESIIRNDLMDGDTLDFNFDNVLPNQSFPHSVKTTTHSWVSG

How the values were obtained:
[1] = molecular target: Pax3 (GST fusion or 6xHis) (UniProt P24610); assay: EMSA; conditions: 25 C; purified recombinant protein; protein details: GST-Pax3 or 6xHis-Pax3, bacterially expressed; label: 32P
[2] = molecular target: FKHR (FOXO1) (UniProt Q12778); assay: SELEX; conditions: affinity rank FBS1>FBS2>FBS3; protein form not stated; purified recombinant protein

Row | Sequence | binding result [1] | selection result [2]
1 | AAGCTTTGTAGAGTAATCATGTATTCCAAACTCAGGCTTACATTTGAATGTTGGCTACATATGTATGAGTTTTCAACTTCCAGGAGAAAACGTCTCTTTAAAAGAGAACAACCAAAAGCTAACAGAAATACAAGTGTGACATTGGCCTTAGTTCGACCAAGAAGCAATTCATCTTGTTTCTTCCTTTGTGGTATACAGATAAGAAAAATAAAATCACTACAACGAAGCAAAATCTCTTCAGCGTCTCTAATACATCTTCCAAATCAGTGTGTCTGACCTTTTCTTAAGACTTTAACCATCACAAGGAAACCAGTGGGGAGGGAGTCATGTGCTGCCTAGTAGTTAAAGGGCAGGAGAATTCACTGGTGTGAGAAGGGATTAGTGAGAGCTGGAAGAGAGGACCAGCCCCTCCCAGTGTGAGGAATCTGGCTTGGGATTTACTGTCTGGCAGAAAATCTCTTCGGGCAATTAACAGCT (double strand) [Trp-1 (1) promoter region, one Pax3 site] | binds | –
2 | TCTACCTAAATTCCCTGCTGAGGAGCTCTCAGGGGGGTTTCCTCCAGCTCCCTCCGGATTTGTCTGCCCAGTTGGAGGTTTGATCTGCCTTATCCCTCCTTCCCACAGCGCACAGGTAAAAAAAGAAAATGAGCTCAGAGAGGTGCCATCTTTTGCCCGAAGTCACACAGCGAATGTCCACGGATTGGAGGGCAGTGGTGGAATTCCTGGCGGCCCTTGGACGCCCATTTGTCTGCCCGCTTCTGATACCCGGGTTCGGAGAATAGGCCTCTAACAAGCGGCCCATTAGAAGGAATTGTCACTCCTCCGGGAGTGAGGTTGTCCCATTAGGGCGAATTGTCATTCCTCCTGGAGCGAGGTTGTCCTGCTCCGCGAAGGCTGAGTGCCGGGCCGAGAGCAATTAACGCGGCTCCGGCGCGGGCAGCCGCCTCTGCCCCGGGCAGCGGGGGCGGGGCGCCCGGCGCGGCTGGAGCCGGTCACCCGGCGCAGCCCCTTCCCCCGGAGCCCGCCTTTCATCTCCCCGCGCCTGGCGCCTACCCGCAGCCCTGGCCCGTCTACAGCCTTCTCTGCCCCTCCCCCTGCCCC (double strand) [Msx2 promoter region] | binds | –
3 | AAGCTTTGTAGAGTAATCATGTATTCCAAACTCAGGCTTACATTTGAATGTTGGCTACATATGTATGAGTTTTCAACTTCCAGGAGAAAACGTCTCTTTAAAAGAGAACAACCAAAAGCTAACAGAAATACAAGTGTGACATTGGCCTTAGTTCGACCAAGAAGCAATTCATCTTGTTTCTTCCTTTGTGGTATACAGATAAGAAAAATAAAATCACTACAACGAAGCAAAATCTCTTCAGCGTCTCTAATACATCTTCCAAATCAGTGTGTCTGACCTTTTCTTAAGACTTTAACCATCACAAGGAAACCAGTGGGGAGGGAGTCATGTGCTGCCTAGTAGTTAAAGGGCAGGAGAATTCACTGGTGTGAGAAGGGATTAGTGAGAGCTGGAAGAGAGGACCAGCCCCTCCCAGTGTGAGGAATCTGGCTTGGGATTTACTGTCTGGCAGAAAATCTCTTCGGGCAATTAACAGCT (double strand) [Trp-1 (2) promoter region, two Pax3 sites] | binds | –
4 | ATCCAGTGACGATTAGCACCGTCACGCTTAGATATG / TCGACATATCAAAGCGTGACGGTGCTAATCGTCACTG [1x Pax3 oligo] | binds | –
5 | GTAAACAACAACATGTTGAC (double strand) [FBS1] | – | selected

The exact form of at least one protein or probe is not confirmed.
